These are yes or no findings as the source states them, for the method shown. In cells and extracts the contact can be indirect. Some binding calls cover weakened binding; strength is not graded here. For some of these results: Tags and fused reporters may be left off the sequences shown.
Experiments:
Assay in all cases: co-IP
[1] = target: T1, FLAG-AFF4 Δ970-1163 F345D (UniProt Q9UHB7)
T1 sequence: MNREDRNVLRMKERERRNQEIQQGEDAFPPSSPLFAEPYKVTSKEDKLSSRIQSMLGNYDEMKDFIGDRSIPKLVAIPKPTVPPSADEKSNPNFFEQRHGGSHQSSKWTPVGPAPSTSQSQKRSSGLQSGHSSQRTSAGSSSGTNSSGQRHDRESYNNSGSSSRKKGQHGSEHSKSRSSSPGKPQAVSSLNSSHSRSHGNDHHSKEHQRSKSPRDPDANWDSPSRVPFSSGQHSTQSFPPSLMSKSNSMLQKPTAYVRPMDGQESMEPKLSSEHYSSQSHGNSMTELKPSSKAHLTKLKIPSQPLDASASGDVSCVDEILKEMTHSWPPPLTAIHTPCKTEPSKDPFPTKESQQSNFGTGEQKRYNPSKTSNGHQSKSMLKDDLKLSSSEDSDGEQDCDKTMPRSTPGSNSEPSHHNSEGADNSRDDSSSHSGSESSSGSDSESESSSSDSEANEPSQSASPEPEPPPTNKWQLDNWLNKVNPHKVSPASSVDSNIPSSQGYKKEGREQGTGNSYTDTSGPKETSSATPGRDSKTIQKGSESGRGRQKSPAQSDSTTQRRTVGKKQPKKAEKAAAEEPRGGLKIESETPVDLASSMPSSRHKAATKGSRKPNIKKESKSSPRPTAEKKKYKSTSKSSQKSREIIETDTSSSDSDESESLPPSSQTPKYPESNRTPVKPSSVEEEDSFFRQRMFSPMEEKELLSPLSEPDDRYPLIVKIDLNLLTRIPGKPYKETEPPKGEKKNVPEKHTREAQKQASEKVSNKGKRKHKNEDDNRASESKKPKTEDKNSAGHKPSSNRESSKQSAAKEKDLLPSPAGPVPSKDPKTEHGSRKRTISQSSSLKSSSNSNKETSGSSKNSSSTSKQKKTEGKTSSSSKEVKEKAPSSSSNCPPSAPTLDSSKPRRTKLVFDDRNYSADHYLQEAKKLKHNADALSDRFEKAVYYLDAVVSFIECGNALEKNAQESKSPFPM

Amino acid sequences for entries named in this document (tags omitted).
UniProt O00472: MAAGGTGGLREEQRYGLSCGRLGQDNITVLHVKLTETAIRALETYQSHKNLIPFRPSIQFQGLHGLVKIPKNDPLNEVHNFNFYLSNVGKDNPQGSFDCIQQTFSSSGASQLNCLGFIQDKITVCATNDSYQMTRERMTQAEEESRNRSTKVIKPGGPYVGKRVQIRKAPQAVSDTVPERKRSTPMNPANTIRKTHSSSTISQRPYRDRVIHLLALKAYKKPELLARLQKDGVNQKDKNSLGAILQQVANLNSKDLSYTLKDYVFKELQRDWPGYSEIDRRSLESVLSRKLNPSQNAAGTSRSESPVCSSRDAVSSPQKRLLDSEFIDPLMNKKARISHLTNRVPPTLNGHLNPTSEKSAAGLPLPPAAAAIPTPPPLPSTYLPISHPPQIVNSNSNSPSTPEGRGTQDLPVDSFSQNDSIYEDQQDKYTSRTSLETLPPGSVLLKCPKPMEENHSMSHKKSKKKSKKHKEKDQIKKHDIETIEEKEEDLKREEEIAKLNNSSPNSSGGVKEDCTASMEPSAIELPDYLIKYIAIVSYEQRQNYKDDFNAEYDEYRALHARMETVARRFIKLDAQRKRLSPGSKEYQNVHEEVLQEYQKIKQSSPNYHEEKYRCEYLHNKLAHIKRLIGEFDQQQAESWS

[2] = target: T2, FLAG-AFF4 Δ970-1163 F347D (UniProt Q9UHB7)
T2 sequence: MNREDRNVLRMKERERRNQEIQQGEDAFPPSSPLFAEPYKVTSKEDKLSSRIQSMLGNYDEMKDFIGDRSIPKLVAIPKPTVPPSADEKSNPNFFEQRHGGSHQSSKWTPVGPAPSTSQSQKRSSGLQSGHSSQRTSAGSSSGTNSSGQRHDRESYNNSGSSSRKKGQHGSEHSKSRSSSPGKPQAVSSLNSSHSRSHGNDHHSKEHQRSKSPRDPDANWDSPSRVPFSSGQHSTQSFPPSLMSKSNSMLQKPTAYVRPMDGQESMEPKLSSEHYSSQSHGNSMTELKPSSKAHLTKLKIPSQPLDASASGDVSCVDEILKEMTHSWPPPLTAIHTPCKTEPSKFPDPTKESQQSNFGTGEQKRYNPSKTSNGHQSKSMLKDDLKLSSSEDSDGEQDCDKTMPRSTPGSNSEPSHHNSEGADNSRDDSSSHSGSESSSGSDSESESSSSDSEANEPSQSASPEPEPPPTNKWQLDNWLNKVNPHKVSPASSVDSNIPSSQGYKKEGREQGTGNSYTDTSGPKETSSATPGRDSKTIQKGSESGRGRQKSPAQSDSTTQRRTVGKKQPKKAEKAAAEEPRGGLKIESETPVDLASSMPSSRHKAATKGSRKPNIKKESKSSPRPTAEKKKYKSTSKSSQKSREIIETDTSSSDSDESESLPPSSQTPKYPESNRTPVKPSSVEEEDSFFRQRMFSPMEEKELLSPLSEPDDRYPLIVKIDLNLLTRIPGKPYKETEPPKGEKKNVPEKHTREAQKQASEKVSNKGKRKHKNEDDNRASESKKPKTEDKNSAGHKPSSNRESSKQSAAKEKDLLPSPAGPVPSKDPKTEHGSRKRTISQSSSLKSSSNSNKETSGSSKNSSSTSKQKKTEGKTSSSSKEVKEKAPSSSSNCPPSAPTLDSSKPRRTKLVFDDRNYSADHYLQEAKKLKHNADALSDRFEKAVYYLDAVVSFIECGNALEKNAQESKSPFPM

[3] = target: T3, FLAG-AFF4 Δ970-1163 P329G (UniProt Q9UHB7)
T3 sequence: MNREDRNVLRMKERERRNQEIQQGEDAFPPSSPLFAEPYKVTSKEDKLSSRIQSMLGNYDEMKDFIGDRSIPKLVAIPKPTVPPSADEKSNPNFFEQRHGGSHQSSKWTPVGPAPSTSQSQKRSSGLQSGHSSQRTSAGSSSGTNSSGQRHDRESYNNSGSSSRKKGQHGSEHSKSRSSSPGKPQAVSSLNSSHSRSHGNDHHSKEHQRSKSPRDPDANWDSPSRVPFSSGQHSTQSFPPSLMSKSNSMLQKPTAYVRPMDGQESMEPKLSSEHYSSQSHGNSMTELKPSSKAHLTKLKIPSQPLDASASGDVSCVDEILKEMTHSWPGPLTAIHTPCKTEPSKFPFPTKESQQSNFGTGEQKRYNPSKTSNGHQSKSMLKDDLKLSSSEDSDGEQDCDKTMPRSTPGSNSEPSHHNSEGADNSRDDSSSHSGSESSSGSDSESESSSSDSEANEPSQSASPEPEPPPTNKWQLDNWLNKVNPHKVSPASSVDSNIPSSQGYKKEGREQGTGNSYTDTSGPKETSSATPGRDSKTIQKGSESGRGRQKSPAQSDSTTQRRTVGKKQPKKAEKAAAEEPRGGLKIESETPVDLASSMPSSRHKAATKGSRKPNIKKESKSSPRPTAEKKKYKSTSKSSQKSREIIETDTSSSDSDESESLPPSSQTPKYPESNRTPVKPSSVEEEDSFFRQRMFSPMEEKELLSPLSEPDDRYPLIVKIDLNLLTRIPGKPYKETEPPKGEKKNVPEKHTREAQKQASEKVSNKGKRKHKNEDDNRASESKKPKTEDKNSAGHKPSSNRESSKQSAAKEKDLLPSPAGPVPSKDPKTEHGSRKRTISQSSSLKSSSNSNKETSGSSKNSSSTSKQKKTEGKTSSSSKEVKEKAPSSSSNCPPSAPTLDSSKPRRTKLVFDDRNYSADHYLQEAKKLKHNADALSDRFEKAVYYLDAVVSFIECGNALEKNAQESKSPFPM

[4] = target: HA-tagged wild-type ELL2 (human) (UniProt O00472)

B1: ELL1 in nuclear extracts (protein, UniProt P55199 1-621)
chain: MAALKEDRSYGLSCGRVSDGSKVSVFHVKLTDSALRAFESYRARQDSVSLRPSIRFQGSQGHISIPQPDCPAEARTFSFYLSNIGRDNPQGSFDCIQQYVSSHGEVHLDCLGSIQDKITVCATDDSYQKARQSMAQAEEETRSRSAIVIKAGGRYLGKKVQFRKPAPGATDAVPSRKRATPINLASAIRKSGASAVSGGSGVSQRPFRDRVLHLLALRPYRKAELLLRLQKDGLTQADKDALDGLLQQVANMSAKDGTCTLQDCMYKDVQKDWPGYSEGDQQLLKRVLVRKLCQPQSTGSLLGDPAASSPPGERGRSASPPQKRLQPPDFIDPLANKKPRISHFTQRAQPAVNGKLGVPNGREALLPTPGPPASTDTLSSSTHLPPRLEPPRAHDPLADVSNDLGHSGRDCEHGEAAAPAPTVRLGLPLLTDCAQPSRPHGSPSRSKPKKKSKKHKDKERAAEDKPRAQLPDCAPATHATPGAPADTPGLNGTCSVSSVPTSTSETPDYLLKYAAISSSEQRQSYKNDFNAEYSEYRDLHARIERITRRFTQLDAQLRQLSQGSEEYETTRGQILQEYRKIKKTNTNYSQEKHRCEYLHSKLAHIKRLIAEYDQRQLQAWP
- binding [1]: binds
- binding [2]: binds
- binding [3]: no binding
- binding [4]: binds

Source: doi:10.1101/068262 (bioRxiv, 2016)
